The values below come from publication PMC12450638 (The Journal of Biological Chemistry, 2025).

These are yes or no findings as the source states them, for the method shown. A result given as binding can be weak or reduced; the word gives no strength.

This test has as its target T1, KP1 peptide (…).
T1 sequence (peptide): NRFAGFGIGL
In words: crystal structure; B∗73:01/KP1 and KIR2DL2 purified separately by SEC in 10 mM Hepes, 150 mM NaCl, pH 7.2, mixed at 1:1 molar ratio, 6 to 10 mg/ml; crystals in Tris-HCl pH 8.75, 20% PEG 8000; 2.9 Å; both purified. In general terms: SEC sorts molecules by how far they enter the pores of the column.

Consider “KIR2DL2∗001, soluble construct (residues 1-225 of the mature protein) (human) (receptor)”, for which the binding result is recorded as “binds”.
